# In the supplement of paper PMC3334620:
# Whole data set: some 33,000 sequences, median “E-score (-0.5 to 0.5)” near -0.016, cut for the highest 2% near 0.3. The list shows a part of the results.
# Molecular target: T1, Yer184c (UniProt P39961)
# T1 sequence: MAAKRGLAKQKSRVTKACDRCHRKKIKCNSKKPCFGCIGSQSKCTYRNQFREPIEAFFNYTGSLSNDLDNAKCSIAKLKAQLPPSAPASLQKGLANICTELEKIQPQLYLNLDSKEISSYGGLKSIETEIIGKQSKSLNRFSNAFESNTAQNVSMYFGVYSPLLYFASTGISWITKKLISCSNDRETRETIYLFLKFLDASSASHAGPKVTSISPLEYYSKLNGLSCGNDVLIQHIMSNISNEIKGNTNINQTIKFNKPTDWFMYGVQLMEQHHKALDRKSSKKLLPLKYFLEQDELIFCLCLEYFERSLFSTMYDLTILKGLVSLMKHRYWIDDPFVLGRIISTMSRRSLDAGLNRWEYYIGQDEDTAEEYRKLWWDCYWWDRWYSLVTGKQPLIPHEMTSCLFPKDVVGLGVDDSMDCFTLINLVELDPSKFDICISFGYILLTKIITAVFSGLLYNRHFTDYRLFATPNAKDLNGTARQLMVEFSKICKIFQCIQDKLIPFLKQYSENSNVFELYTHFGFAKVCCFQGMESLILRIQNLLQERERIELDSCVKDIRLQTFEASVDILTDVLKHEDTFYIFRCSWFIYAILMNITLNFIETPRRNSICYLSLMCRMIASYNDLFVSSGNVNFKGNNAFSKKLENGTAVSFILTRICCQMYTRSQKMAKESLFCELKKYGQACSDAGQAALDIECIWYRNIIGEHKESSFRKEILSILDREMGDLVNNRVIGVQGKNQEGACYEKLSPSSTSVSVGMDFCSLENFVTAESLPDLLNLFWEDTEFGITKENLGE
# Assay: PBM E-score (8-mer binding enrichment) (E-score (-0.5 to 0.5)); higher = stronger / more preferred TF binding
# Conditions: protein concentration: 100 nM; construct: GST-full length
# How it was run: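 Yeast transcription factors, full-length or as DNA-binding domains, were expressed with a GST tag using PURExpress in vitro transcription/translation. At about 100-200 nM they were applied to universal all-10-mer Agilent arrays, double-stranded by primer extension on fresh or once-stripped slides. Fluorescent anti-GST detected bound protein, and masliner normalised the scans. E-scores for ungapped eight-base words, pooled with reverse complements, came from the Universal PBM Analysis Suite.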
row,Sequence,PBM E-score
1,AATTCCGT,0.328
2,CCCCGACA,-0.0219
3,CAATTCAC,0.145
4,TGAGCACA,0.0117
5,ACGTACCT,-0.268
6,CCTCACGC,0.0151
7,ACGCATGA,-0.177
8,CGGTGCAA,-0.0375
9,TGCCGCAA,0.135
10,CTCACCAG,-0.139
11,ACCAAGTC,0.0425
12,ACCATGGA,-0.233
13,CGTGTCTA,-0.0239
14,GCGTGGAC,-0.154
15,GCGACGCA,-0.0707
16,TGTACTAA,0.108
17,ACGCGAAC,-0.0697
18,CGAGATAC,0.131
19,GTGGTCAA,-0.142
20,GAAATACA,-0.0184
21,AAGAAGAG,0.0534
22,CTCTGGGA,-0.147

row,Sequence,PBM E-score
1,AGTGGGCA,-0.0949
2,AGTCCACC,-0.0989
3,GATCAATA,0.164
4,CGTCCACG,-0.0331
5,CAAGTAGC,-0.216
6,ATAATTCG,0.0636
7,CGGGCTAC,0.00991
8,AGCTTTTA,0.0954
9,CTAACTGA,0.113
10,ATCAAAAA,0.164
11,GATATCCA,0.0875
12,CGTGACTC,-0.197
13,CGTCACAC,-0.167
14,CCCTCCAC,-0.266
15,CAGCAGGG,-0.351
16,ATTACCAG,-0.00578
17,ACATCTCA,-0.0525
18,ACAACTGG,-0.142
19,TTCTAGAA,0.0755
20,ACGGGTCC,-0.00653
21,ATAAGACG,-0.121
22,ACCGCGCG,0.22

# 4 entries from above, bar-delimited:
row | Sequence | PBM E-score
17 | ACGCGAAC | -0.0697
18 | CGAGATAC | 0.131
19 | GTGGTCAA | -0.142
20 | GAAATACA | -0.0184

# As entered above.
# For PBM E-score, CTAACTGA has the entry 0.113
# For PBM E-score, AGCTTTTA has the entry 0.0954

# (further entries)

row,Sequence,PBM E-score
1,TATCCTGA,0.0496
2,GCACAGGC,-0.133
3,CAGACGGC,-0.0755
4,CGGGCCGC,0.137
5,AGCAGGCG,0.0901
6,GACGTTGA,0.0159
7,AACATTAG,-0.193
8,TACAAAAA,0.153
9,CCTGCCGA,0.113
10,TCCATAGA,0.0746
11,GTACACTA,-0.031
12,CTATGGCC,-0.185
13,CCCGAGGC,-0.013
14,ATGCCAAG,-0.148
15,ACGGGTTA,-0.281
16,CCAACTCG,-0.0499
17,CCCTGGAA,-0.291
18,AGCACGGA,0.11
19,ACACACCC,-0.0674
20,ACGTATCC,-0.154
21,TGGATAAA,0.18
22,CGTTGTCC,0.178

row,Sequence,PBM E-score
1,CCCGGGAC,0.238
2,CTTGTGTC,-0.0357
3,TCACAAAA,0.205
4,GATTAAAA,0.296
5,CACATGGC,0.0835
6,AGAAGACC,-0.144
7,AGGTTCAT,-0.121
8,CGTAACTC,-0.0641
9,CATACCAC,0.0462
10,CCGCGTGC,-0.013
11,AGTCGCGA,0.112
12,TAGTGTGA,-0.0491
13,AGCTATCC,-0.128
14,CTGTACTA,0.185
15,ACAAATGG,-0.117
16,CTACACGC,-0.291
17,AAGTTACA,-0.0365
18,ACTTACTA,-0.118
19,CTTTCTAA,0.272
20,ATACCCCA,-0.122
21,AGGATCAA,0.14
22,ATAATCTG,-0.0596

row,Sequence,PBM E-score
1,AAATCCCT,-0.153
2,CAAGATCA,-0.12
3,ACCCCACC,0.0874
4,CGACTCAG,-0.0669
5,CGAGAGAG,0.166
6,GTCGTTGA,-0.0823
7,CCATTAGG,-0.285
8,GGCGGCCC,-0.254
9,AACATTCA,-0.0155
10,CGAACGAG,-0.15
11,AATACGAC,-0.0663
12,AATCTGGA,0.0411
13,AGCGGCTC,0.106
14,GGCCATAA,-0.102
15,CCGGATAC,0.257
16,AATACATC,0.124
17,CCTTAAAC,0.00871
18,CGGACCGA,0.402
19,CACCGCGG,0.242
20,ACCTCACA,-0.0804
21,ACCTCGAG,0.0316
